Measurements reported in the supplement of paper PMC12823440, “Inhibitors supercharge kinase turnover through native proteolytic circuits” (Nature, 2025).
Counter-ions that a name gives are not always drawn. The list shows a part of the results. Hit calls seldom repeat between salt and free forms of one compound.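 Kinases were expressed as nanoluciferase fusions in K562 cells and luminescence was read every 4 h between 2 and 18 h as percent of control, DMSO set to 100% and a positive control to 0%. A time point counts as decreased when the signal drops significantly (2 sigma). The hit call is the authors' own, does not follow from the count of time points alone, and its rule is not shown.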

By UniProt entry, the sequences of proteins in these tests, tags left out. Where a name states a change or a piece, a line headed by the entry shows the natural chain unless it says otherwise.
UniProt Q8IWU2: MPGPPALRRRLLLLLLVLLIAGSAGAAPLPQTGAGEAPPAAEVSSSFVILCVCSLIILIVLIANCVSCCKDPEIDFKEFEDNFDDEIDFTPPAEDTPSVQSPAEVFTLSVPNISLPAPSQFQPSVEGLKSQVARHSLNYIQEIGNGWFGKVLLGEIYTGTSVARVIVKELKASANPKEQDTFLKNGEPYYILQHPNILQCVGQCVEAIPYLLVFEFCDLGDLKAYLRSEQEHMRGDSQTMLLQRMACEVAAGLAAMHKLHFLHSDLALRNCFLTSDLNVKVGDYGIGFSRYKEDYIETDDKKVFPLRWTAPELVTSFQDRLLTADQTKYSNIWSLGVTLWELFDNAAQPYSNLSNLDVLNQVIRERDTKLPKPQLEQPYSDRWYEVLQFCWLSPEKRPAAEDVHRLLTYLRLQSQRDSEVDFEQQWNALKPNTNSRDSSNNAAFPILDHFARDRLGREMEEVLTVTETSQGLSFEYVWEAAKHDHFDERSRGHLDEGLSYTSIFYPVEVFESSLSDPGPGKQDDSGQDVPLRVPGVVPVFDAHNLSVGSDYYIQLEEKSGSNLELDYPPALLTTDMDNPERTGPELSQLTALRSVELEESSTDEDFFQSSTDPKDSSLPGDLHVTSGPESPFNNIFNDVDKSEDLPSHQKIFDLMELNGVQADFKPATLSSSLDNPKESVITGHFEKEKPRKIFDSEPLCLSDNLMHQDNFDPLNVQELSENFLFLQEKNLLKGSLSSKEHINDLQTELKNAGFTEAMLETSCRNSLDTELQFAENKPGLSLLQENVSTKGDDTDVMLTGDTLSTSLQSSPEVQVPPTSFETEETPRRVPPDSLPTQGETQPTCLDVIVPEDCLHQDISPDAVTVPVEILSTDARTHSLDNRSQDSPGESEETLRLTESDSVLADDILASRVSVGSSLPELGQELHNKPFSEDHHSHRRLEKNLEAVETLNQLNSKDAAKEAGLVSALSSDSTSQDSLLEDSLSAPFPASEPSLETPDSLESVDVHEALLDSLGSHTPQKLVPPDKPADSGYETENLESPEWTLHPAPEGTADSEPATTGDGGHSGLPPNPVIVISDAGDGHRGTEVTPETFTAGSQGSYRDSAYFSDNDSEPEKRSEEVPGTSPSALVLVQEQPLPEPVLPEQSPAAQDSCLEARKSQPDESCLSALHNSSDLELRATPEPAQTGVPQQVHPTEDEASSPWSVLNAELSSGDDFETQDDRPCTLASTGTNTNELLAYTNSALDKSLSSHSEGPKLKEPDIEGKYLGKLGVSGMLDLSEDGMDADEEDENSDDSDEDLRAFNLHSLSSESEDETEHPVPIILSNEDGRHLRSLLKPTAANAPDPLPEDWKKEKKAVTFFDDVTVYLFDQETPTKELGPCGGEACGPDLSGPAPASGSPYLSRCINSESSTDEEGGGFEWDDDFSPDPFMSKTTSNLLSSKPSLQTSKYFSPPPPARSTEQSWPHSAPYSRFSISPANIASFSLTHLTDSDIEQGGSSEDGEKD
UniProt P07948: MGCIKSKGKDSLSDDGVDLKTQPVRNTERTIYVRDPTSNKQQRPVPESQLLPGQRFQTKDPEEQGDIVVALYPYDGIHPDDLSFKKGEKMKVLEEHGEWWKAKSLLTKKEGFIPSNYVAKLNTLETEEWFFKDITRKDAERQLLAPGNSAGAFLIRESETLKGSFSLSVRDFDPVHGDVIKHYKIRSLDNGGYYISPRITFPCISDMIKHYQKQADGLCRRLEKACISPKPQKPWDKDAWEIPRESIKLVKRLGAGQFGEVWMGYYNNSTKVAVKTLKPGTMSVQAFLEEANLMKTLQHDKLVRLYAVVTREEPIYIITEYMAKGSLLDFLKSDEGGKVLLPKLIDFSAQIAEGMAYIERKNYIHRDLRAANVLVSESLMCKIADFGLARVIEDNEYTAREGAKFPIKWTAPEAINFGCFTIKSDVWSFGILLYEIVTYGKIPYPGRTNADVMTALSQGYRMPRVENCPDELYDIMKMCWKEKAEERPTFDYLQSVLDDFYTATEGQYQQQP
UniProt Q12851: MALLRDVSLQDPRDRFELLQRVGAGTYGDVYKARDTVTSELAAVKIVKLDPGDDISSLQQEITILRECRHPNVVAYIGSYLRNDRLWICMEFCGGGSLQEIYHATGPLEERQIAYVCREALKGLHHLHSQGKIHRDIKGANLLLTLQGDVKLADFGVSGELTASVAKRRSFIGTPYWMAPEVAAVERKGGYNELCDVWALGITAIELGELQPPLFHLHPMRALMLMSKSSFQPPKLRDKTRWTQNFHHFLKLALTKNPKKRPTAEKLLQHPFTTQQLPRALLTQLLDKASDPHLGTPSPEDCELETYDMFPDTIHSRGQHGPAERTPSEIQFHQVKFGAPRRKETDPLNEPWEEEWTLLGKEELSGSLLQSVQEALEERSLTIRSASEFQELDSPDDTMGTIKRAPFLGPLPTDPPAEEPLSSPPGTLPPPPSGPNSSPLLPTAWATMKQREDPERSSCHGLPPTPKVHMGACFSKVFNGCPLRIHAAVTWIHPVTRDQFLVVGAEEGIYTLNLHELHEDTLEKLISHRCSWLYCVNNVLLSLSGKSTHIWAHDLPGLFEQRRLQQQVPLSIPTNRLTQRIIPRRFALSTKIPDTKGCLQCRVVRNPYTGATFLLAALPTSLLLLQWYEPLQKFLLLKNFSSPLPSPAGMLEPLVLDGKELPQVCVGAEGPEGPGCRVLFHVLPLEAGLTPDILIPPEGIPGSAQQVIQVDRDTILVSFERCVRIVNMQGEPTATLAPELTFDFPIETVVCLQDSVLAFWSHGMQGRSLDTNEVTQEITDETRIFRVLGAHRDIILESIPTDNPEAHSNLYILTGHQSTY
UniProt P28482, whole entry: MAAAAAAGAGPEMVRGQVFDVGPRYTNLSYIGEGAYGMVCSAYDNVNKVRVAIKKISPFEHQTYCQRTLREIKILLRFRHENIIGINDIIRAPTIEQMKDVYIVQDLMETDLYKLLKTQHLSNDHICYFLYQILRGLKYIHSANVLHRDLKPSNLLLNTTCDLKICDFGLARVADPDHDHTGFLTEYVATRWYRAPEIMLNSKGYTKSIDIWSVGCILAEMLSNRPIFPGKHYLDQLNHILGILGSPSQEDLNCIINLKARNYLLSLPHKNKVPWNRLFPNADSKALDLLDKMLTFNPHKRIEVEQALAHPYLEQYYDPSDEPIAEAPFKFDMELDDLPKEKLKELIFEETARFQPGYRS
UniProt P31152, whole entry: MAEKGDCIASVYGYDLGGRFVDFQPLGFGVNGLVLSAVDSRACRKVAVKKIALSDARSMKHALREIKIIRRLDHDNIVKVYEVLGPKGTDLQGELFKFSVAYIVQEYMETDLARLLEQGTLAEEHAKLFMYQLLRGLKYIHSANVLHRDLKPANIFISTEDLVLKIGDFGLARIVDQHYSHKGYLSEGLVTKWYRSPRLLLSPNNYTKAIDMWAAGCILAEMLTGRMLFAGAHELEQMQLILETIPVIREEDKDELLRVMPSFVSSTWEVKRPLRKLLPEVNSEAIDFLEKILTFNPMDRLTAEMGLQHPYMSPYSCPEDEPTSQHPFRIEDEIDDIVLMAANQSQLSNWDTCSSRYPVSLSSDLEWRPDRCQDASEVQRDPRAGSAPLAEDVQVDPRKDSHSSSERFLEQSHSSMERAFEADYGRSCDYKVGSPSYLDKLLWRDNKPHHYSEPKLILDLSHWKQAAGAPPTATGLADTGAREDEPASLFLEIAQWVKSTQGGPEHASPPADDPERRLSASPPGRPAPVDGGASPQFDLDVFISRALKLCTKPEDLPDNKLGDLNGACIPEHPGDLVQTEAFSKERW
UniProt P49137, whole entry, looked up: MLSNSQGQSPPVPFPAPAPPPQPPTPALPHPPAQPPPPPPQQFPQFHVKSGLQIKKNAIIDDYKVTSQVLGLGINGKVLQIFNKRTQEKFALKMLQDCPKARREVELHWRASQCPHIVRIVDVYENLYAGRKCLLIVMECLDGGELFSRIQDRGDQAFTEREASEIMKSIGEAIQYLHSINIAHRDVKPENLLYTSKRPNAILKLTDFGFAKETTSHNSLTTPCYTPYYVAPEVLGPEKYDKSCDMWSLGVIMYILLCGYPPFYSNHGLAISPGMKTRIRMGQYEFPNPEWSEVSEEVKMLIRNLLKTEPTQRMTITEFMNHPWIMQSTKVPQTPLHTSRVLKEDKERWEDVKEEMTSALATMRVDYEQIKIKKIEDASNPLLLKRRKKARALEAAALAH
UniProt Q9BUB5: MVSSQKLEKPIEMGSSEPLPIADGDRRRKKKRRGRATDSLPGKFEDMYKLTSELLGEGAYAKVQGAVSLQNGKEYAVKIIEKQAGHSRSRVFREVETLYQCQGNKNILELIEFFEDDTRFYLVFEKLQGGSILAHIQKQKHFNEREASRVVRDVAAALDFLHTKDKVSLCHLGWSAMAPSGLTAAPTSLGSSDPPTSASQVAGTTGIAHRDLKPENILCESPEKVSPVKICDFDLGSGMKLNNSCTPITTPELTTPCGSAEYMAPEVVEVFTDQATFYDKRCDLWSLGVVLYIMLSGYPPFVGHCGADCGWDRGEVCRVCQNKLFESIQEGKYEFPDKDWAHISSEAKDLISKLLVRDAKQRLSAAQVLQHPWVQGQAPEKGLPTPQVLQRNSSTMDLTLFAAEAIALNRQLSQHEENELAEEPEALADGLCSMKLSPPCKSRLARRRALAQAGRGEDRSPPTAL
UniProt Q16620, whole entry, looked up: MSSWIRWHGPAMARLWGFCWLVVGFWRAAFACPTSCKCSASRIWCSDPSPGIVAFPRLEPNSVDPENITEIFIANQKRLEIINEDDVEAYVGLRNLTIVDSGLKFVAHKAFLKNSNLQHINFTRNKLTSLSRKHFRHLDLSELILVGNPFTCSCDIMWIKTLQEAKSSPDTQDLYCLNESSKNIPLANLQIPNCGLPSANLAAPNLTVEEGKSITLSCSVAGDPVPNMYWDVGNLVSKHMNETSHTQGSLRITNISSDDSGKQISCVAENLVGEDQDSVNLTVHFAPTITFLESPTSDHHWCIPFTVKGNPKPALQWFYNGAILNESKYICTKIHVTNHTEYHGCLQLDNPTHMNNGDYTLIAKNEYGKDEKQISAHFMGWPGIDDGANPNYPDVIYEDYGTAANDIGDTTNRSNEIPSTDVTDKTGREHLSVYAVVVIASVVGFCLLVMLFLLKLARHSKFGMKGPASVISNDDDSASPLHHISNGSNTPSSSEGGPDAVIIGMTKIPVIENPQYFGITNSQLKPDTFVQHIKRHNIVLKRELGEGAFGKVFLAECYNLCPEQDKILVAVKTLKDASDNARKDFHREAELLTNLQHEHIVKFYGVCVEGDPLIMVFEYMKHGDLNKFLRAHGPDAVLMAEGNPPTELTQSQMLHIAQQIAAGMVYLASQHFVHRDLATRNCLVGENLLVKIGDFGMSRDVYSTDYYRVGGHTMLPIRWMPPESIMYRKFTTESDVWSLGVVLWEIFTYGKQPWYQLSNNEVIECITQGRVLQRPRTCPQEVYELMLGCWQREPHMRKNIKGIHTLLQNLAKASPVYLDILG

How the values were obtained:
Test in all cases: number of time points (of 5) at which kinase-Nluc abundance scored as decreased, DMSO-normalised (count); higher = more persistent destabilization
Details in all cases: K562; 2-18 h
[1] = target: LMTK2 (UniProt Q8IWU2)
[2] = target: LYN (UniProt P07948)
[3] = target: MAP2K1 (UniProt Q02750)
[4] = target: MAP2K2 (UniProt P36507)
[5] = target: MAP4K2 (UniProt Q12851)
[6] = target: MAPK1 (UniProt P28482)
[7] = target: MAPK4 (UniProt P31152)
[8] = target: MAPKAPK2 (UniProt P49137)
[9] = target: MKNK1 (UniProt Q9BUB5)
[10] = target: NTRK2 (UniProt Q16620)

Measured: number of time points

CC(=O)NC1CC(n2cnc(NC(=O)Cc3ccc4ccccc4c3)c2)C1 (stereo not given) (10 µM)
0: all assays above

O=C(Nc1cn[nH]c1-c1ccccn1)c1nn(C2CCNCC2)cc1Cl (10 µM)
0: all assays above

O=C1NC(=O)/C(=C\c2cccc(C(F)(F)F)c2)S1 (2.5 µM)
0: all assays above

NC(=O)c1ccc(-c2nc(-c3ccc4c(c3)OCCO4)c(-c3ccccn3)[nH]2)cc1 (10 µM)
0: all assays above

C[C@@H]1CCN(C(=O)CC#N)C[C@@H]1N(C)c1ncnc2[nH]ccc12 [Tofacitinib (citrate)] (10 µM)
0: all assays above

COc1cc(Nc2ncc(F)c(Nc3ccc4c(n3)NC(=O)C(C)(C)O4)n2)cc(OC)c1OC [R406 (free base)] (10 µM)
0: all assays above

C=CC(=O)Nc1cccc(Nc2nc(Nc3ccc(NC4CN(CCF)C4)cc3OC)ncc2C(F)(F)F)c1 (2.5 µM)
0: all assays above

Cn1ncc(Cl)c1-c1cc(C(=O)N[C@H](CN)Cc2ccc(F)c(F)c2)oc1Cl [Uprosertib] (10 µM)
0: all assays above

CCN1CCN(Cc2ccc(-c3cc4c(N[C@H](C)c5ccccc5)ncnc4[nH]3)cc2)CC1 (2.5 µM)
1: [7] | [10]
0: all other assays above

COc1cc2ncnc(Nc3ccc(Cl)cc3F)c2cc1OC (10 µM)
1: [9]
0: all other assays above

COc1cc2c(N3CCN(C(=O)Nc4ccc(OC(C)C)cc4)CC3)ncnc2cc1OCCCN1CCCCC1 [Tandutinib (hydrochloride)] (10 µM)
0: all assays above

COc1cc2c(N3CCN(C(=O)Nc4ccc(OC(C)C)cc4)CC3)ncnc2cc1OCCCN1CCCCC1 [Tandutinib] (10 µM)
0: all assays above

CCNc1nc(Nc2cc(F)c(C(=O)N3CCOCC3)cc2OC)ncc1C(F)(F)F [GNE-7915 (tosylate)] (10 µM)
0: all assays above

C=CC(=O)Nc1cc(Nc2ncc(Cl)c(-c3c[nH]c4ccccc34)n2)c(OC)cc1N(C)CCN(C)C [Mutant EGFR inhibitor] (2.5 µM)
3: [9]
0: all other assays above

N#CCC1CCN(c2nc(Nc3ccc(N4CCC(O)CC4)cc3)c3c(=O)[nH]ncc3n2)CC1 [Gusacitinib] (10 µM)
0: all assays above

Cc1ccc(C(=O)Nc2ccc(Oc3cc4cnn(C)c4cc3-c3cn[nH]c3)c(F)c2)c(=O)n1-c1ccc(F)cc1 [Merestinib dihydrochloride] (2.5 µM)
0: all assays above

FC(F)(c1ccc2ncccc2c1)c1nnc2ccc(-c3ccncc3)nn12 (10 µM)
0: all assays above

Cc1ccc2cc(-c3c(C)ccc(C(=O)c4c(-c5ccccc5)n(C)n(-c5ccccc5)c4=O)c3N)ccc2n1 (2.5 µM)
0: all assays above

Cc1[nH]c(/C=C2\C(=O)Nc3ccc(F)cc32)c(C)c1C(=O)N[C@H]1CCN(C(=O)N(C)C)C1 [Vorolanib] (10 µM)
0: all assays above

O=Nc1c(-c2c(O)[nH]c3ccc(I)cc23)[nH]c2ccccc12 [5-Iodo-indirubin-3'-monoxime] (10 µM)
0: all assays above

CCOc1ccc2cc(-c3nn(CC4CCN(C)CC4)c4ncnc(N)c34)ccc2n1 (10 µM)
0: all assays above

Cc1cccc(Oc2cnc(=O)[nH]c2)c1 [Tolimidone] (10 µM)
0: all assays above

C=CC(=O)Nc1ccc(CN2C(=O)N(c3cc(OC)cc(OC)c3)Cc3cnc(Nc4ccc(N5CCN(C)CC5)cc4)nc32)cc1 (2.5 µM)
0: all assays above

O=S(=O)(NCCCN1c2ccccc2CCc2ccc(Cl)cc21)c1ccc(OC(F)(F)F)cc1 (2.5 µM)
0: all assays above

Oc1ccc(Nc2nc(-c3ccc(Cl)cc3)cs2)cc1 (10 µM)
0: all assays above

Nc1cc(C(F)(F)F)c(-c2cc(N3CCOCC3)nc(N3CCOCC3)n2)cn1 [Buparlisib (Hydrochloride)] (2.5 µM)
1: [9]
0: all other assays above

COc1cc2ncc(-c3ccccc3)nc2cc1OC [Tyrphostin AG1296] (10 µM)
0: all assays above

CCN1CCC(n2cc(CNc3cc(Cl)c4ncc(C#N)c(Nc5ccc(F)c(Cl)c5)c4c3)nn2)CC1 [Cot inhibitor-2] (2.5 µM)
0: all assays above

c1cc(-c2c[nH]c3nccc(N4CCC[C@@]5(CCCCN5)C4)c23)ncn1 (10 µM)
0: all assays above

CC[C@@H](Oc1nc(Oc2cc(C)cc(-c3cccc(CN)c3)c2)c(F)cc1F)C(=O)O (10 µM)
0: all assays above

C=C(CC[C@@H](C(=O)O)[C@H]1[C@H](O)C[C@@]2(C)C3=C(CC[C@]12C)[C@@]1(C)CC[C@H](OC(C)=O)C(C)(C)[C@@H]1CC3)C(C)C [Pachymic acid] (10 µM)
0: all assays above

Cc1cc(Nc2ncnc3ccc(NC4=NC(C)(C)CO4)cc23)ccc1Oc1ccn2ncnc2c1 [Tucatinib (hemiethanolate)] (2.5 µM)
0: all assays above

3 successive entries from above, quoted:
COc1cc2ncc(-c3ccccc3)nc2cc1OC [Tyrphostin AG1296] (10 µM)
0: all assays above

CCN1CCC(n2cc(CNc3cc(Cl)c4ncc(C#N)c(Nc5ccc(F)c(Cl)c5)c4c3)nn2)CC1 [Cot inhibitor-2] (2.5 µM)
0: all assays above

c1cc(-c2c[nH]c3nccc(N4CCC[C@@]5(CCCCN5)C4)c23)ncn1 (10 µM)
0: all assays above

Further records

COCCNc1nc2ccc(C#CC3(O)CCCCC3)cc2n1-c1ccnc(N)n1 (10 µM)
0: all assays above
